# Results taken from article PMC12136057, “Structural characterization of the ABC transporter DppABCDF in Escherichia coli reveals insights into dipeptide acquisition” (PLOS Biology, 2025).
# Where a chain is given by its changes, count along the chain named. In names and notes the source's numbering stands. No constants are given. Whether binding was seen depends on the method and setting. For part of these data: Binding seen in cells or lysates may run through a third protein. Some results given as binding are weak or reduced against the parent protein; the word gives no strength. For part of these data: Where a sequence is shown, tags or fusion partners need not be part of it.
# T1: DppB (E. coli) (UniProt P0AEF8)
# T1 sequence: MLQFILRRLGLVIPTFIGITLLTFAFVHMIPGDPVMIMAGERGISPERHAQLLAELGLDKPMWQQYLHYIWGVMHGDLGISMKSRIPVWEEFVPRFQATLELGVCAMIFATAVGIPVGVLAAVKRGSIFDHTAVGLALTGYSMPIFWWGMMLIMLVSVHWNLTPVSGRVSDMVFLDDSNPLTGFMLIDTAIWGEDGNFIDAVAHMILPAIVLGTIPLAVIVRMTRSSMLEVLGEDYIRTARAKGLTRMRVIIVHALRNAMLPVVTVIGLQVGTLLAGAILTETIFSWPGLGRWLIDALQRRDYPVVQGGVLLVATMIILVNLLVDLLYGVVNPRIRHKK
# T2: DppF with C-terminal Strep-tag II (E. coli) (UniProt P37313)
# T2 sequence: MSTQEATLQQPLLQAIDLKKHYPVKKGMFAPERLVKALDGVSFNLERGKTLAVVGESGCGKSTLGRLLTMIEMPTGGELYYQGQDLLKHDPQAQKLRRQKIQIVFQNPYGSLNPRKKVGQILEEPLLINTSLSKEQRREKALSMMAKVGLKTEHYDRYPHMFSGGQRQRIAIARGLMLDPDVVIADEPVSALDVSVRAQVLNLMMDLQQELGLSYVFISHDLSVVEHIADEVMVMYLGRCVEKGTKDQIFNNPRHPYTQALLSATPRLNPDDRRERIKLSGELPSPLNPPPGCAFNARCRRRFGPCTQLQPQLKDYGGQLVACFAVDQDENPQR
# T3: DppBCD^E179QF^E187Q (E. coli) (UniProt P0AEF8+P0AEG1+P0AAG0+P37313)
# T3 sequence 1: T1 sequence
# T3 sequence 2: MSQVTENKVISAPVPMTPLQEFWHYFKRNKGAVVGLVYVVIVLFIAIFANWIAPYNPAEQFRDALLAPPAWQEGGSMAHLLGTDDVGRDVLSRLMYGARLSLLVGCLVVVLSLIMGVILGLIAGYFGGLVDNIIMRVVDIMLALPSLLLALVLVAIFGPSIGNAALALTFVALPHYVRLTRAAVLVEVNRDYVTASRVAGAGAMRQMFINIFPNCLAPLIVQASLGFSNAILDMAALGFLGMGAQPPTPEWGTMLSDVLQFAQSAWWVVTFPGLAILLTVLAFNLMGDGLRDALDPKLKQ
# T3 sequence 3: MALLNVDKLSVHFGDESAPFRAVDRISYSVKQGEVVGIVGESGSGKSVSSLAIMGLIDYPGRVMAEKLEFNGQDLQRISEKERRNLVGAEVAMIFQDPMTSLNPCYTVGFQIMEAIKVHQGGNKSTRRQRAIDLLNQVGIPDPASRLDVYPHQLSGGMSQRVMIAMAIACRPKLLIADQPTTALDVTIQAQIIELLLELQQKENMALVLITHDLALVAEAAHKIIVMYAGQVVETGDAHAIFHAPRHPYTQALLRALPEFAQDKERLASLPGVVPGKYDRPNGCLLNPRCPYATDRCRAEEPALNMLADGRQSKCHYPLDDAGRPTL
# T3 sequence 4: T2 sequence with E187Q
# T4: DppC (E. coli) (UniProt P0AEG1)
# T4 sequence: T3 sequence 2
# T5: DppBCDF translocator (wild type) (E. coli) (UniProt P0AEF8+P0AEG1+P0AAG0+P37313)
# T5 sequence 1: T1 sequence
# T5 sequence 2: T3 sequence 2
# T5 sequence 3: T3 sequence 3 with Q179E
# T5 sequence 4: T2 sequence
# B1: DppD (enzyme, UniProt P0AAG0 1-327)
# chain: T3 sequence 3 with Q179E
# B2: DppA with a His-tag fused to the C-terminus (protein, UniProt P23847 29-535)
# chain: KTLVYCSEGSPEGFNPQLFTSGTTYDASSVPLYNRLVEFKIGTTEVIPGLAEKWEVSEDGKTYTFHLRKGVKWHDNKEFKPTRELNADDVVFSFDRQKNAQNPYHKVSGGSYEYFEGMGLPELISEVKKVDDNTVQFVLTRPEAPFLADLAMDFASILSKEYADAMMKAGTPEKLDLNPIGTGPFQLQQYQKDSRIRYKAFDGYWGTKPQIDTLVFSITPDASVRYAKLQKNECQVMPYPNPADIARMKQDKSINLMEMPGLNVGYLSYNVQKKPLDDVKVRQALTYAVNKDAIIKAVYQGAGVSAKNLIPPTMWGYNDDVQDYTYDPEKAKALLKEAGLEKGFSIDLWAMPVQRPYNPNARRMAEMIQADWAKVGVQAKIVTYEWGEYLKRAKDGEHQTVMMGWTGDNGDPDNFFATLFSCAASEQGSNYSKWCYKPFEDLIQPARATDDHNKRVELYKQAQVVMHDQAPALIIAHSTVFEPVRKEVKGYVVDPLGKHHFENVSIE
# B3: DppC (protein, UniProt P0AEG1 1-300)
# chain: T3 sequence 2
# B4: DppD^E179Q (enzyme, UniProt P0AAG0 1-327)
# chain: T3 sequence 3
# B5: DppF^E187Q with C-terminal Strep-tag (enzyme, UniProt P37313 1-334)
# chain: T2 sequence with E187Q
# B6: endogenous DppA (protein, UniProt P23847 29-535)
# chain: B2 chain
# B7: DppB (protein, UniProt P0AEF8 1-339)
# chain: T1 sequence
# B8: DppF with C-terminal Strep-tag II (enzyme, UniProt P37313 1-334)
# chain: T2 sequence
# Assays:
# DppB (E. coli) [1] = molecular target: T1, DppB (E. coli); assay: cryo-EM structure; apo DppBCDF, co-expressed and co-purified complex in 0.006% GDN with DTT; 3.2 Å; inward-facing; both purified
# [2] = molecular target: T2, DppF with C-terminal Strep-tag II (E. coli); assay: pull-down; affinity purification (Strep-tag II on DppF) of co-expressed DppBCDF variants, 12% SDS-PAGE
# [3] = molecular target: T3, DppBCD^E179QF^E187Q (E. coli); assay: cryo-EM structure; DppA-His co-expressed and co-purified (Ni-NTA) with DppBCD(E179Q)F(E187Q), 2 mM ATPγS and 2 mM MgCl2, 30 min on ice; 2.73 Å; outward-facing; both purified
# DppC (E. coli) [4] = molecular target: T4, DppC (E. coli); assay: as above
# DppB (E. coli) [5] = molecular target: T1, DppB (E. coli); assay: as above
# [6] = molecular target: T5, DppBCDF translocator (wild type) (E. coli); assay: SEC; DppA and DppBCDF purified separately, mixed and run on size-exclusion chromatography; both purified
# [7] = molecular target: T5, DppBCDF translocator (wild type) (E. coli); assay: pull-down; attempt to co-purify the wild-type DppABCDF complex using tagged DppA and DppBCDF
# DppB (E. coli) [8] = molecular target: T1, DppB (E. coli); assay: cryo-EM structure; DppBCD(E179Q)F(E187Q), co-purified complex, 2 mM ATPγS and 2 mM MgCl2, 30 min on ice; inward-facing; both purified
# DppB (E. coli) [9] = molecular target: T1, DppB (E. coli); assay: cryo-EM structure; DppBCD(E179Q)F(E187Q), co-purified complex, 2 mM AMPPNP and 2 mM MgCl2, 30 min on ice; inward-facing; both purified
# DppC (E. coli) [10] = molecular target: T4, DppC (E. coli); assay: cryo-EM structure; DppBCD(E179Q)F(E187Q), co-purified complex, 2 mM ATPγS and 2 mM MgCl2, 30 min on ice; inward-facing; both purified
# DppC (E. coli) [11] = molecular target: T4, DppC (E. coli); assay: cryo-EM structure; DppBCD(E179Q)F(E187Q), co-purified complex, 2 mM AMPPNP and 2 mM MgCl2, 30 min on ice; inward-facing; both purified
# [12] = molecular target: T3, DppBCD^E179QF^E187Q (E. coli); assay: pull-down; affinity purification of DppBCD(E179Q)F(E187Q) from E. coli; endogenous DppA found with it on the gel
# DppC (E. coli) [13] = molecular target: T4, DppC (E. coli); assay: cryo-EM structure; apo DppBCDF, co-expressed and co-purified complex in 0.006% GDN with DTT; 3.2 Å; inward-facing; both purified
binder,measurement,setting,value
B1,binding,DppB (E. coli) [1],binds
same,binding,[2],binds
B2,binding,[3],binds
same,binding,DppC (E. coli) [4],binds
same,binding,DppB (E. coli) [5],binds
same,binding,[6],no binding
same,binding,[7],no binding
B3,binding,DppB (E. coli) [1],binds
same,binding,DppB (E. coli) [5],binds
same,binding,DppB (E. coli) [8],binds
same,binding,DppB (E. coli) [9],binds
same,binding,[2],binds
B4,binding,DppB (E. coli) [5],binds
same,binding,DppB (E. coli) [8],binds
same,binding,DppB (E. coli) [9],binds
B5,binding,DppC (E. coli) [4],binds
same,binding,DppC (E. coli) [10],binds
same,binding,DppC (E. coli) [11],binds
B6,binding,[12],binds weakly
B7,binding,[2],binds
B8,binding,DppC (E. coli) [13],binds
